# In publication PMC8342531:
# Amino acid sequences for entries named in this document (tags omitted).
# UniProt O88738: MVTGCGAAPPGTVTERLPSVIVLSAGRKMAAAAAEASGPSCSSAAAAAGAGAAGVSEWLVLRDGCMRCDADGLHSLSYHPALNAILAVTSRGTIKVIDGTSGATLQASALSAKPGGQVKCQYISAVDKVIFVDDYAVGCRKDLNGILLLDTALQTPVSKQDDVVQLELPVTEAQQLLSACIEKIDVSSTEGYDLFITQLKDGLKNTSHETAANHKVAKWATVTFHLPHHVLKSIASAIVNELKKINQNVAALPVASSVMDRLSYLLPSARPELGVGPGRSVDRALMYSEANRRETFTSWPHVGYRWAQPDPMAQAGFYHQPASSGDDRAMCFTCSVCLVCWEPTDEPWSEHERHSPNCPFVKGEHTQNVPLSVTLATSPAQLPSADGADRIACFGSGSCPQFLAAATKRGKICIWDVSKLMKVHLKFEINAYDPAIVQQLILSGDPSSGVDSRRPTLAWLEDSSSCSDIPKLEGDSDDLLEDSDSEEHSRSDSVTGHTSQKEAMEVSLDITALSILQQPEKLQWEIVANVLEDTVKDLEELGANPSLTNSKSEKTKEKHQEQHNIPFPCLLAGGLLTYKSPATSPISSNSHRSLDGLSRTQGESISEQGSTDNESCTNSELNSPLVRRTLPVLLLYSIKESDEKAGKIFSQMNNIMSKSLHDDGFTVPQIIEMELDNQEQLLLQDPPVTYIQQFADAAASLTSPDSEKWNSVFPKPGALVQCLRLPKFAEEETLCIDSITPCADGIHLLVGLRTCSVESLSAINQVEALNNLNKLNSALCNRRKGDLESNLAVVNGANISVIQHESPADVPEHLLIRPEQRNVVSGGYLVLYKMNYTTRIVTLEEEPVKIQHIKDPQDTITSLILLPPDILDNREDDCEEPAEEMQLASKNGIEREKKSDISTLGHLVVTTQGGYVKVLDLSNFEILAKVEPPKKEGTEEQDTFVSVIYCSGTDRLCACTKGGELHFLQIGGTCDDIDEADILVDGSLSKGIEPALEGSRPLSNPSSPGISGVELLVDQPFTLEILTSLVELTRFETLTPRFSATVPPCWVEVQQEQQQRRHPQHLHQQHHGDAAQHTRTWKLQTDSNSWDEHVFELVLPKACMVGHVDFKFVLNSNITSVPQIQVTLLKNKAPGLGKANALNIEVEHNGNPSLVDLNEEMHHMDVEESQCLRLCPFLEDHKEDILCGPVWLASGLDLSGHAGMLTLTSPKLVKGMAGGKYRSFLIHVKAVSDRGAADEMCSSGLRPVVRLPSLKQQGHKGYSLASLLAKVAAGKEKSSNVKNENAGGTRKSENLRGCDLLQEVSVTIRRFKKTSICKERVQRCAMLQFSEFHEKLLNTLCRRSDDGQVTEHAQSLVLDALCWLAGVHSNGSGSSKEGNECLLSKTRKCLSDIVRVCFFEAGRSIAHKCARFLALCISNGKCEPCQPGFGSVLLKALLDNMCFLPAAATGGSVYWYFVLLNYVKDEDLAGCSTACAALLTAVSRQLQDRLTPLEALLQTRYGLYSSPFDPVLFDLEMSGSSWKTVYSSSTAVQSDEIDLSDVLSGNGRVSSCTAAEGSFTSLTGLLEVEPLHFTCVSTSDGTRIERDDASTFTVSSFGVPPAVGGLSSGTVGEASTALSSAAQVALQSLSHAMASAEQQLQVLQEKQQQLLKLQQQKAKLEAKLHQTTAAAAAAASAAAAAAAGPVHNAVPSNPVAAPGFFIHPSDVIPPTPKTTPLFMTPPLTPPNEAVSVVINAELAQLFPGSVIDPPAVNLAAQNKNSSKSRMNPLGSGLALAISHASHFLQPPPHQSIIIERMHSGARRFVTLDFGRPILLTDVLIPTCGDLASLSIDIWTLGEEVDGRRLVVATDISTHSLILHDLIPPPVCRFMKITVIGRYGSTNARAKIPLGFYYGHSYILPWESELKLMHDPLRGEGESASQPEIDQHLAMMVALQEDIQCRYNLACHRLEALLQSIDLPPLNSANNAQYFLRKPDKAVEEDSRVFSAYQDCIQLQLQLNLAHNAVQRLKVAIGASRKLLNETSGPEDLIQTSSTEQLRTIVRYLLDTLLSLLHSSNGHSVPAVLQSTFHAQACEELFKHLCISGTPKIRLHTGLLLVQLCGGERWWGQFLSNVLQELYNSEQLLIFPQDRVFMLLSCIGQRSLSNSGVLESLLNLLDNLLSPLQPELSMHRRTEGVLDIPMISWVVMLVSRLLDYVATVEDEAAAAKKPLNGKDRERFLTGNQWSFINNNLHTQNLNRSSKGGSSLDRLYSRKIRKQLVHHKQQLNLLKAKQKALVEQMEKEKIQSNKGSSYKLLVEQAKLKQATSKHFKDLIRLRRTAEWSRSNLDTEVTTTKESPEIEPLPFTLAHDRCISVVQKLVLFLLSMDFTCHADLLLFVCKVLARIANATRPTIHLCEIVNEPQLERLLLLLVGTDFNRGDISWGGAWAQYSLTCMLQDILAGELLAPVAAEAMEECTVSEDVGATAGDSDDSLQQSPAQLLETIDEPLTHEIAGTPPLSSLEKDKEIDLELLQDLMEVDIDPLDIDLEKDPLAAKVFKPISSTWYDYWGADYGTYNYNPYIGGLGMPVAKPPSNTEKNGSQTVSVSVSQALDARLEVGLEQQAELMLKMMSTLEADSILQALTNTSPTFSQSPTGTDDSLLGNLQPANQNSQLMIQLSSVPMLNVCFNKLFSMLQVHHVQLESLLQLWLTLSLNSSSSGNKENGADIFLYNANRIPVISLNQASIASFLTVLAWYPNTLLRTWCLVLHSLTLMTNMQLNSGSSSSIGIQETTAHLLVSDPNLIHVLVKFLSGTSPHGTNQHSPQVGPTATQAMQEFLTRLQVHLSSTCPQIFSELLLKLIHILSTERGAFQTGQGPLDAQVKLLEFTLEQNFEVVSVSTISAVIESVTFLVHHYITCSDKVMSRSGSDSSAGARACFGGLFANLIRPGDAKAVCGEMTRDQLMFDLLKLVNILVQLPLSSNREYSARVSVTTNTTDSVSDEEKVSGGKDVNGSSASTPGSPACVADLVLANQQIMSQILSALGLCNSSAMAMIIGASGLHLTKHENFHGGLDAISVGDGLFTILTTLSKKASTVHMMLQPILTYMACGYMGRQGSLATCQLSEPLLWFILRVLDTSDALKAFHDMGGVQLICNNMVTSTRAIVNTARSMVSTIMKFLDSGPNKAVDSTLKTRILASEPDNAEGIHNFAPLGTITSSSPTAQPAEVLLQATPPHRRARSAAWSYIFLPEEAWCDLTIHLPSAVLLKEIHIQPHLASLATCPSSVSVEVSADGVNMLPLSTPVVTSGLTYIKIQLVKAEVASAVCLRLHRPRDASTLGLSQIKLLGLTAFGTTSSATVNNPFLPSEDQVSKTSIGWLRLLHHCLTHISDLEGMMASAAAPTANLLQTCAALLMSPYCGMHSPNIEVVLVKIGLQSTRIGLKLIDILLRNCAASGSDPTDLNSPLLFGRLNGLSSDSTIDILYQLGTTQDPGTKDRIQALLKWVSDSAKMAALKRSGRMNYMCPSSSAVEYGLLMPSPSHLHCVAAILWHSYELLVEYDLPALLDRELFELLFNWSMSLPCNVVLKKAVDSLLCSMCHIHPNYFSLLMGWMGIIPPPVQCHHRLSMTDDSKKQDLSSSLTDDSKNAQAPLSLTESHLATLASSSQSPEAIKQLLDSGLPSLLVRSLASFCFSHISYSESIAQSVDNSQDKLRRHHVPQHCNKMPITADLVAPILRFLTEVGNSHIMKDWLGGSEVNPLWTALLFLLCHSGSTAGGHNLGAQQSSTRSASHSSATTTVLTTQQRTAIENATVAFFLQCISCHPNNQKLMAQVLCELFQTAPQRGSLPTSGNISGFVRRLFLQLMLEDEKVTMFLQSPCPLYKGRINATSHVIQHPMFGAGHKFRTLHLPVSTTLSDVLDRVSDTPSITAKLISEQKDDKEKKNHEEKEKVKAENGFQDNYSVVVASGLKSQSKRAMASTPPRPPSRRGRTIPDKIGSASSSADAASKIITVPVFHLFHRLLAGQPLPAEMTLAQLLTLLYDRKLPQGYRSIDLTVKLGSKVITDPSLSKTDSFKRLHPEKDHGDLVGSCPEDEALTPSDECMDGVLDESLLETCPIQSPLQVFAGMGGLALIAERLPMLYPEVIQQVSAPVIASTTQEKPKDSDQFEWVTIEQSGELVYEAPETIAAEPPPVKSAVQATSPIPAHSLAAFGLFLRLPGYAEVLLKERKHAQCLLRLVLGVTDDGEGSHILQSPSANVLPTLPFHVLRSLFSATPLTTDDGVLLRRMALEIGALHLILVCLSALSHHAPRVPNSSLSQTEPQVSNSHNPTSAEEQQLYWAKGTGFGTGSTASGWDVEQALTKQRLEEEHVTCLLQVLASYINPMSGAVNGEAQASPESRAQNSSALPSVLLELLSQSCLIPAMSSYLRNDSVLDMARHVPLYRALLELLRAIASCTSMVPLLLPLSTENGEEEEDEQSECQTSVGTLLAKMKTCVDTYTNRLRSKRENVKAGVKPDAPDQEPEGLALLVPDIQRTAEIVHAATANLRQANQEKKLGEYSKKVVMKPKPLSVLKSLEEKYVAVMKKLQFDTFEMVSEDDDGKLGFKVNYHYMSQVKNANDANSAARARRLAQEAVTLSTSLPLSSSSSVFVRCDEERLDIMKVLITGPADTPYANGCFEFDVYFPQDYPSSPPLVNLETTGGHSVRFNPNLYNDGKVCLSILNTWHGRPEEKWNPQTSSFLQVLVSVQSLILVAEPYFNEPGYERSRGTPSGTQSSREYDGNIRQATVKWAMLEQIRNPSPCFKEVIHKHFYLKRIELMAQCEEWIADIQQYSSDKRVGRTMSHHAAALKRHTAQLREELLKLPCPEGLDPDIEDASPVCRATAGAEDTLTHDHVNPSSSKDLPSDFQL
# These are yes or no findings as the source states them, for the method shown. Binding seen in cells or lysates may run through a third protein. Some binding calls cover weakened binding; strength is not graded here.
# B1: Syntaxin 17 (protein, UniProt Q9D0I4 1-301)
# chain: MSEDEEKVKLRRLEPAIQKFTKIVIPTDLERLRKHQINIEKYQRCRIWDKLHEEHINAGRTVQQLRSNIREMEKLCLKVHKDDLVLLKRMIDPVKEAAATATAEFLQLHLESVEELKKQVNDEELLQPSLTRSTTVDGVLHTGEAEAASQSLTQIYALPEIPQDQNAAESWETLEADLIELSHLVTDMSLLVSSQQEKIDSIADHVNSAAVNVEEGTKNLQKAAKYKLAALPVAGALIGGVVGGPIGLLAGFKVAGIAAALGGGVLGFTGGKLIQRRKQKMMEKLTSSCPDLPSQSDKKRS
# Target: BIR repeat containing ubiquitin-conjugating enzyme (mouse (endogenous in HT22)) (UniProt O88738)
# Test: co-IP; HT22 cell lysate (500 ug) incubated with antibody and Dynabeads Protein G at 4 °C; IgG as negative control; Western blot
binder,measurement,value
B1,binding,binds
